Measured values published in PMC11551737, “Structural and functional insights into the interaction between the bacteriophage T4 DNA processing proteins gp32 and Dda” (Nucleic Acids Research, 2024).
Read-outs that look alike come from different tables or passages of the source. These are yes or no findings as the source states them, for the method shown. Some binding calls cover weakened binding; strength is not graded here.

What was measured:
[1] = molecular target: T1, bacteriophage T4 helicase Dda, ATPase deficient mutant K38A (bacteriophage T4) (UniProt P32270); assay: SPR; SPR analysis 1: Biacore 3000, 25°C; His-tagged Dda-K38A/dT20 immobilised on an NTA chip by capture-coupling (~5800 RU); peptides injected, 4-fold dilution series, maximum 100 μM; 20 mM Tris-acetate pH 8.0, 150 mM NaCl, 10 mM magnesium acetate, 3 mM potassium glutamate, 1 mM TCEP, 0.05% Tween20, 10% glycerol; steady-state fit, 1:1 model; both purified
T1 sequence: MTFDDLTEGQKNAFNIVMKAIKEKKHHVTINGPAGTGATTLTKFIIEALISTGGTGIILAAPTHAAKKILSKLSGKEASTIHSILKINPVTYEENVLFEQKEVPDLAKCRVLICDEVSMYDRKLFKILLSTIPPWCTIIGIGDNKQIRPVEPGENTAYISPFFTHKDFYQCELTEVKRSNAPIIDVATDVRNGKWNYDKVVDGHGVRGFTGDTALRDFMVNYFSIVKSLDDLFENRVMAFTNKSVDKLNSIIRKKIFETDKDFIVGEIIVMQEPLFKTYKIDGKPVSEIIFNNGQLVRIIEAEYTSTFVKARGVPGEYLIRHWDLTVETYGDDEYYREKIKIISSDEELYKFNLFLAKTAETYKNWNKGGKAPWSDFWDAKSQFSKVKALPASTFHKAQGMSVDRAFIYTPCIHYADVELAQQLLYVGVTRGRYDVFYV

[2] = molecular target: T2, bacteriophage T4 helicase Dda, wild type (bacteriophage T4) (UniProt P32270); assay: SPR; SPR analysis 2: Biacore T200, 25°C; wild-type Dda/dT20 immobilised on an NTA chip as in SPR analysis 1; peptides injected, 2-fold dilution series, 100 μM to 0.78 μM; steady-state analysis; both purified
T2 sequence: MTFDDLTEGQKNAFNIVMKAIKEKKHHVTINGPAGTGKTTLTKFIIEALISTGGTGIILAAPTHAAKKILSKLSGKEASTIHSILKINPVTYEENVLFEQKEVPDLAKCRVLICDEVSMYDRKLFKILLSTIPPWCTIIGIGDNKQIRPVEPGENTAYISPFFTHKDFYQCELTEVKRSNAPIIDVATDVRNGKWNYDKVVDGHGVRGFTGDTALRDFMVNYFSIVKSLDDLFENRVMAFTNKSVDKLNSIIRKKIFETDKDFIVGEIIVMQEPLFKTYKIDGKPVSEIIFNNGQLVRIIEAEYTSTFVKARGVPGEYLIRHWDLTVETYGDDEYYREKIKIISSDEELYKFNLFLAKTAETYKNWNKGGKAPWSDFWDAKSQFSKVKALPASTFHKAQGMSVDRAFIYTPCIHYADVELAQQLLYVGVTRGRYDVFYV

[3] = molecular target: T2, bacteriophage T4 helicase Dda, wild type (bacteriophage T4); assay: as above; remark: listed apart in the source
[4] = molecular target: T1, bacteriophage T4 helicase Dda, ATPase deficient mutant K38A (bacteriophage T4); assay: AUC; sedimentation velocity, 20°C, 42 000 rpm; 20 mM Tris pH 7.0, 200 mM NaCl, 0.5 mM EDTA, 5 mM β-mercaptoethanol; Dda-K38A at 1.70 μM; both purified

gp32 C-terminal peptide 240–253 (from UniProt P03695 240-253)
binding [1]: no binding (tested: 100 μM)

gp32 C-terminal peptide 240–255 (from UniProt P03695 240-255)
binding [2]: no binding (tested: 100 μM)
binding [1]: no binding (tested: 100 μM)

NTKTEDDFMSSSSGSSSSADDTDLDDLLNDL [gp32 C-terminal peptide 271–301]
binding [3]: binds weakly

B1: bacteriophage T4 helicase Dda, ATPase deficient mutant K38A (enzyme, UniProt P32270 1-439)
chain: MTFDDLTEGQKNAFNIVMKAIKEKKHHVTINGPAGTGATTLTKFIIEALISTGGTGIILAAPTHAAKKILSKLSGKEASTIHSILKINPVTYEENVLFEQKEVPDLAKCRVLICDEVSMYDRKLFKILLSTIPPWCTIIGIGDNKQIRPVEPGENTAYISPFFTHKDFYQCELTEVKRSNAPIIDVATDVRNGKWNYDKVVDGHGVRGFTGDTALRDFMVNYFSIVKSLDDLFENRVMAFTNKSVDKLNSIIRKKIFETDKDFIVGEIIVMQEPLFKTYKIDGKPVSEIIFNNGQLVRIIEAEYTSTFVKARGVPGEYLIRHWDLTVETYGDDEYYREKIKIISSDEELYKFNLFLAKTAETYKNWNKGGKAPWSDFWDAKSQFSKVKALPASTFHKAQGMSVDRAFIYTPCIHYADVELAQQLLYVGVTRGRYDVFYV
binding [4]: no binding (tested: 1.70 μM)
